Laboratory results: PubChem BioAssay AID1671190 (National Center for Advancing Translational Sciences (NCATS), 2021)
The campaign covered roughly 580,000 compounds. About 6,100 (1.1%) were called active. Inconclusive results, whose numbers are uncertain, are shown with a selection of clear calls. The call rests on the fitted dose curve; in most records, active means well fitted inhibition curve with a large enough effect; inconclusive means small, poorly fitted or top-dose-only effect, or another doubt; inactive means no such curve, though single readings can be large or run the other way. A potency beside an inconclusive call is a rough fit, not a confirmed value.

Protein sequences, listed by entry. Tags and fused reporters are not part of them. Lines headed by an entry give the natural chain unless they say otherwise; changes in a name come on top.
UniProt P18054: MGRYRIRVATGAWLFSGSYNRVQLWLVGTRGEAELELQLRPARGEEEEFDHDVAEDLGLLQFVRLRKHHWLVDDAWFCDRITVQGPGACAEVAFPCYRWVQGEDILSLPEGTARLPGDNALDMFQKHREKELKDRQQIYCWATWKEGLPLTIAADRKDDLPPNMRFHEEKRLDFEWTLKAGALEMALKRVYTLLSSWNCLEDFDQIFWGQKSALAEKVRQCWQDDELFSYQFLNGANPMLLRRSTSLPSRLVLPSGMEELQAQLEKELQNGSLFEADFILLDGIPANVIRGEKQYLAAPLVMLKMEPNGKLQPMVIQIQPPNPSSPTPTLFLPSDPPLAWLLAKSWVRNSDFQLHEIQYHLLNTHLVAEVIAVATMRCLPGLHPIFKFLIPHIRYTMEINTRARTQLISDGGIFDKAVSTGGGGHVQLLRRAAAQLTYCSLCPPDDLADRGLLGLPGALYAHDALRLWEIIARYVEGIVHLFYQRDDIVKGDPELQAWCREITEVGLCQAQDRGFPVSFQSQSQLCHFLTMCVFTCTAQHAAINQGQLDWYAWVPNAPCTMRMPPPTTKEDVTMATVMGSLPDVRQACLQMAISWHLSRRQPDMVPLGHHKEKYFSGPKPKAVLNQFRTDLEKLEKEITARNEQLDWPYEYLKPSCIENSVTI

What follows are molecules tested against Polyunsaturated fatty acid lipoxygenase ALOX12 (Homo sapiens) (UniProt P18054) (assay: Primary qHTS assay for inhibitors of human arachidonate 12S-lipoxygenase (ALOX12): Round 2). Details: purified 12hLO, xylenol orange hydroperoxide absorbance; activity change, negative = inhibition: at 108 µM (top of the series) unless noted.
Method in brief: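 Purified human 12hLO (150 nM final) in 25 mM Hepes, 0.01% Triton X-100, pH 7.0 was preincubated 15 min at room temperature with compound. Then 40 uM arachidonic acid was added, 30 min. Hydroperoxide was read by Fe-XO absorbance ratio 573/405 nm.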
On the % scale 0 is the no-effect control and ±100 the full control effect; potency means the concentration at half of the fitted maximal effect.

Structure (SMILES)	activity change, negative = inhibition	Potency
Cc1ccc(Cl)c2sc(N3CCN(C(=O)c4ccco4)CC3)nc12	inactive: 4.86%	
CCn1nc(C(=O)OCC(=O)Nc2cc(C(F)(F)F)ccc2Cl)c2ccccc2c1=O		inconclusive: 44.7 µM [inhibitor, partial curve, poor fit]
CC(=O)c1cnn(-c2cc(Nc3ccc(F)cc3F)nc(C)n2)c1C		inconclusive: 79.4 µM [inhibitor, partial curve, poor fit]
COc1c(CNC(C)c2nnc3n2CCCCC3)c(C(C)C)nn1C (stereo not given)	inactive: 7.52%	
Cc1ccc(N(CC(=O)Nc2ccc(C)cn2)S(=O)(=O)c2c(C)nn(C)c2C)cc1		inconclusive: 100 µM [inhibitor, single point]
CC(C)CN1C(=O)c2cccn2CC1C(=O)NCc1ccc(Cl)cc1 (stereo not given)	inactive: -10.4%	
C=CCn1c(SCC(=O)c2ccc(O)c(O)c2)nnc1-c1cccc(C)c1		active: 8.91 µM
N#CC(=C(N)Sc1ccccc1N)C(C#N)=C(N)Sc1ccccc1N		active: 21.7 µM
Cc1cc(-c2ccc(/C=N/n3cnnc3)o2)c(C)c([N+](=O)[O-])c1		inconclusive: 3.55 µM [inhibitor, full curve, poor fit]
COc1ccc(NC(=O)C2CCN(S(C)(=O)=O)CC2)c(OC)c1		inconclusive: 17.8 µM [inhibitor, partial curve, poor fit]
CCN(CC)S(=O)(=O)c1ccc2oc(C(=O)Nc3ccc(OC)cc3OC)c(C)c2c1	inactive: 16.2%	
O=C(CSc1nnc(NC(=O)C2CC(=O)N(c3ccc(F)cc3)C2)s1)NCc1ccco1 (stereo not given)		inconclusive: 22.4 µM [inhibitor, partial curve, poor fit]
COc1ccc2c(c1)cc(C(=O)Nc1cccc(Cl)c1)n2C	inactive: -1.18%	
Cc1cccc(NC(=O)c2ccc(N(C)C3CCCCC3)c([N+](=O)[O-])c2)n1		inconclusive: 100 µM [inhibitor, partial curve, poor fit]
Cc1cccc(-c2cc(C(=O)Nc3cc(C)n(C)n3)c3ccccc3n2)c1	inactive: -5.58%	
CCOC(=O)/C(=N\Nc1cc(Cl)ccc1Cl)N1CCN(CC)CC1		inconclusive: 44.7 µM [inhibitor, partial curve]
O=C(CCc1c[nH]c2ccccc12)Nc1nnc(C2CCCCC2)s1	inactive: -29.4%	
Cc1noc(C)c1-c1cc2cc(CN(C)C)oc2c(NCCOc2ccccc2)n1		inconclusive: 50.1 µM [inhibitor, partial curve, poor fit]
COC(=O)CCCC1=CC2=C(c3ccccc3)C(=O)C(C)(OC(=O)C3CCCC3)C(=O)C2=CN1c1ccc(OC)cc1 (stereo not given)		inconclusive: 39.8 µM [inhibitor, partial curve, poor fit]
O=C(O)CCSc1nnc(-c2ccccc2)n1-c1ccccc1		inconclusive: 89.1 µM [inhibitor, partial curve, poor fit]
CCS(=O)(=O)N1CC2(C1)CN(S(=O)(=O)c1ccc(C)cc1)[C@@H](CO)c1[nH]c3cc(OC)ccc3c12		inconclusive: 63.1 µM [inhibitor, partial curve, poor fit]
NC(=O)c1ccc(COC(=O)c2cc(Br)ccc2F)cc1	inactive: -4.3%	

Structure (SMILES)	activity change, negative = inhibition	Potency
Cc1ccc(C2=NN(C(=O)CSc3nc(N)cc(N)n3)C(c3ccco3)C2)cc1 (stereo not given)		inconclusive: 50.1 µM [inhibitor, partial curve, poor fit]
CC(C)(CNC(=O)c1nn(Cc2ccccc2)c(=O)c2ccccc12)N1CCOCC1		inconclusive: 158 µM [inhibitor, single point]
COc1ccc(CN(C)C(=O)c2ccc(COc3ccccc3)cc2)c(OC)c1	inactive: -13.6%	
COc1ccccc1Sc1nc(-c2ccccn2)ncc1OC		inconclusive: 44.7 µM [inhibitor, partial curve, poor fit]
CCc1ccccc1Cn1c(=O)oc2cccnc21		inconclusive: 112 µM [inhibitor, single point]
Cc1cc(-c2ccc(S(=O)(=O)Nc3ccc(Br)c(C)c3)s2)on1		inconclusive: 50.1 µM [inhibitor, partial curve, poor fit]
CCCCn1nnnc1C(c1ccccc1)N1CCN(c2ccc(OC)cc2)CC1 (stereo not given)		inconclusive: 44.7 µM [inhibitor, partial curve, poor fit]
Cc1ccccc1C(=O)NNC(=S)Nc1cccc(C(F)(F)F)c1		inconclusive: 50.1 µM [inhibitor, partial curve, poor fit]
Oc1ccc(-c2csc(Nc3ccc4c(c3)OCO4)n2)c(O)c1		active: 31.6 µM
COc1cccc(CNC(=O)NNc2nc(C)cc(=O)[nH]2)c1	inactive: -1.72%	
CCOC(=O)C1CCCN(C2=NC(=O)/C(=C/c3ccc(OC)cc3OC)S2)C1 (stereo not given)		inconclusive: 44.7 µM [inhibitor, partial curve, poor fit]
CC1(C(=O)NS(=O)(=O)c2ccccc2)CCN1C(=O)CCc1ccccc1 (stereo not given)		inconclusive: 31.6 µM [inhibitor, partial curve, poor fit]
CCOc1ccc(CN2CCN(Cc3cccc4nonc34)CC2CCO)cc1 (stereo not given)	inactive: 1.59%	
CCn1c(/C=C/N(C)c2ccccc2)[n+](CC)c2ccc(Cl)cc21		inconclusive: 28.2 µM [inhibitor, partial curve]
Cc1ccc(NS(=O)(=O)c2cccc(C(=O)Nc3cccnc3)c2)c(C)c1		inconclusive: 50.1 µM [inhibitor, partial curve, poor fit]
CCN1CCC(n2nccc2NC(=O)c2ccccc2Cl)CC1	inactive: 5.04%	
O=C(/C=C/c1cccc(O)c1)c1ccc(F)cc1		active: 44.7 µM
CCN1CCC(N(Cc2ccc(F)cc2)C(=O)Nc2cc(Cl)ccc2C(=O)OC)CC1		inconclusive: 2 µM [inhibitor, full curve]
CN(C)C(=O)CCc1ccc2c3c([nH]c2c1)[C@]1(C)[C@@H](C(=O)N2CCOCC2)C[C@H](CC(=O)NCc2ccco2)C(=O)N1CC3	inactive: -11.3%	
NC(=O)CSc1nnc(-c2ccccn2)n1Cc1ccco1		inconclusive: 100 µM [inhibitor, partial curve, poor fit]
Cc1cccc(CC(C)NC(=O)c2coc(COc3ccc4c(c3)OCO4)n2)n1 (stereo not given)	inactive: -12.6%	
COc1ccc(N2CCN(C(=O)COc3ncnc4ccccc34)CC2)cc1	inactive: 65.7%	

4 records drawn at random from the list so far, as already listed:
Structure (SMILES)	activity change, negative = inhibition	Potency
CCN1CCC(N(Cc2ccc(F)cc2)C(=O)Nc2cc(Cl)ccc2C(=O)OC)CC1		inconclusive: 2 µM [inhibitor, full curve]
COC(=O)CCCC1=CC2=C(c3ccccc3)C(=O)C(C)(OC(=O)C3CCCC3)C(=O)C2=CN1c1ccc(OC)cc1 (stereo not given)		inconclusive: 39.8 µM [inhibitor, partial curve, poor fit]
CCOc1ccc(CN2CCN(Cc3cccc4nonc34)CC2CCO)cc1 (stereo not given)	inactive: 1.59%	
CCCCn1nnnc1C(c1ccccc1)N1CCN(c2ccc(OC)cc2)CC1 (stereo not given)		inconclusive: 44.7 µM [inhibitor, partial curve, poor fit]

Later entries

Structure (SMILES)	activity change, negative = inhibition	Potency
CNC(=O)N1C[C@@H](CN(C)C)[C@H](NS(=O)(=O)c2ccc(F)cc2F)C1		inconclusive: 63.1 µM [inhibitor, partial curve, poor fit]
COc1cc2nc(=S)n3[nH]c(CCn4c(C)nc5ccccc54)nc3c2cc1OC		inconclusive: 0.0891 µM [inhibitor, full curve, poor fit]
Cc1cccc(C)c1NC(=O)CSc1nnc2[nH]c(=O)c(Cc3ccccc3)nn12		inconclusive: 50.1 µM [inhibitor, partial curve, poor fit]
CCS(=O)(=O)Nc1cccc(C2=NN(C(=O)c3ccco3)C(c3ccco3)C2)c1 (stereo not given)		inconclusive: 35.5 µM [inhibitor, single point]
O=C(c1ccc(Cl)cc1)N1CC2(CCCN(CC3CC3)C2)Cc2ccccc21 (stereo not given)		inconclusive: 28.2 µM [inhibitor, partial curve]
CCOCCn1c(N2CCCC2)nc2c1c(=O)[nH]c(=O)n2C		inconclusive: 63.1 µM [inhibitor, partial curve, poor fit]
COc1ccc(C(=O)NC(=S)Nc2ccc3c(c2)Cc2ccccc2-3)cc1		inconclusive: 31.6 µM [inhibitor, single point]
CC(C)(C)C(=O)NC(=S)NCc1ccccc1		active: 39.8 µM
COc1ccc(C(=O)N2CCC(c3n[nH]c(=O)n3-c3ccc(C)cc3)CC2)cc1F		inconclusive: 20 µM [inhibitor, full curve]
CC(C)C(NS(=O)(=O)c1cccc2cccnc12)C(=O)Nc1ccc(OC(F)(F)F)cc1 (stereo not given)		inconclusive: 35.5 µM [inhibitor, partial curve, poor fit]
O=C(c1ccccc1)c1ccc2nc(Nc3cc(Cl)ccc3O)c3nncn3c2c1		inconclusive: 112 µM [inhibitor, partial curve, poor fit]
NC(=O)c1cc([N+](=O)[O-])cc2c1C=Cc1ccccc1O2		inconclusive: 89.1 µM [inhibitor, partial curve, poor fit]
C=CCn1c(Cc2csc(N)n2)nnc1SCC(=O)Nc1ccc(C(=O)OCC)cc1	inactive: 15%	
CCNC(=S)N/N=C1\CCCCc2ccccc21		inconclusive: 50.1 µM [inhibitor, partial curve, poor fit]
CC1(C)CC(=O)c2cnc(NC(=O)CSC(=S)N3CCCCC3)nc2C1		inconclusive: 112 µM [inhibitor, single point]
c1ccc(N(c2ccccc2)c2nc(N3CCCC3)nc(-n3ccnc3)n2)cc1	inactive: 0%	
CCOC(=O)CSC1=NC(=O)/C(=C\c2ccc(Cl)cc2)S1		active: 44.7 µM
CCOc1ccc2c(c1)c(C(C)=O)c(C)n2-c1ccc(OC)cc1		inconclusive: 44.7 µM [inhibitor, partial curve, poor fit]
O=C(CSc1nc2ccccc2s1)Nc1cc(C(F)(F)F)ccc1Cl	inactive: -1.84%	
COc1cc(C2C(C#N)=C(N)N(c3c(F)cccc3F)C3=C2C(=O)CCC3)ccc1O (stereo not given)		inconclusive: 35.5 µM [inhibitor, partial curve, poor fit]
O=C1CC(NNc2ccccc2)C(=O)N1c1cccc(Cl)c1 (stereo not given)		inconclusive: 28.2 µM [inhibitor, partial curve, poor fit]
